Reference: PubChem BioAssay AID2662 (National Center for Advancing Translational Sciences (NCATS), 2010)
Hit rate of the full screen: of about 290,000 compounds, about 110 (0.038%) were called active. The shares of active, inactive and inconclusive entries below differ from those in the screen. Calls follow the shape of the dose curve; as a rule, active = well fitted inhibition curve with a large enough effect in the polarisation, with a control signal flat (not every such curve was filed as active); inconclusive = small, poorly fitted or top-dose-only effect, or effect the other way, or a change in a side signal; inactive = no such curve, though single readings can be large or run the other way; the % refers to the polarisation. Potencies beside an inconclusive call are fits to weak or partial responses and may not hold up. “Side channel” marks fits to a control or component signal instead of the main read-out.

Sequences of proteins named here, by UniProt entry; tags and fusion partners are left off.
UniProt Q03164, whole entry, looked up: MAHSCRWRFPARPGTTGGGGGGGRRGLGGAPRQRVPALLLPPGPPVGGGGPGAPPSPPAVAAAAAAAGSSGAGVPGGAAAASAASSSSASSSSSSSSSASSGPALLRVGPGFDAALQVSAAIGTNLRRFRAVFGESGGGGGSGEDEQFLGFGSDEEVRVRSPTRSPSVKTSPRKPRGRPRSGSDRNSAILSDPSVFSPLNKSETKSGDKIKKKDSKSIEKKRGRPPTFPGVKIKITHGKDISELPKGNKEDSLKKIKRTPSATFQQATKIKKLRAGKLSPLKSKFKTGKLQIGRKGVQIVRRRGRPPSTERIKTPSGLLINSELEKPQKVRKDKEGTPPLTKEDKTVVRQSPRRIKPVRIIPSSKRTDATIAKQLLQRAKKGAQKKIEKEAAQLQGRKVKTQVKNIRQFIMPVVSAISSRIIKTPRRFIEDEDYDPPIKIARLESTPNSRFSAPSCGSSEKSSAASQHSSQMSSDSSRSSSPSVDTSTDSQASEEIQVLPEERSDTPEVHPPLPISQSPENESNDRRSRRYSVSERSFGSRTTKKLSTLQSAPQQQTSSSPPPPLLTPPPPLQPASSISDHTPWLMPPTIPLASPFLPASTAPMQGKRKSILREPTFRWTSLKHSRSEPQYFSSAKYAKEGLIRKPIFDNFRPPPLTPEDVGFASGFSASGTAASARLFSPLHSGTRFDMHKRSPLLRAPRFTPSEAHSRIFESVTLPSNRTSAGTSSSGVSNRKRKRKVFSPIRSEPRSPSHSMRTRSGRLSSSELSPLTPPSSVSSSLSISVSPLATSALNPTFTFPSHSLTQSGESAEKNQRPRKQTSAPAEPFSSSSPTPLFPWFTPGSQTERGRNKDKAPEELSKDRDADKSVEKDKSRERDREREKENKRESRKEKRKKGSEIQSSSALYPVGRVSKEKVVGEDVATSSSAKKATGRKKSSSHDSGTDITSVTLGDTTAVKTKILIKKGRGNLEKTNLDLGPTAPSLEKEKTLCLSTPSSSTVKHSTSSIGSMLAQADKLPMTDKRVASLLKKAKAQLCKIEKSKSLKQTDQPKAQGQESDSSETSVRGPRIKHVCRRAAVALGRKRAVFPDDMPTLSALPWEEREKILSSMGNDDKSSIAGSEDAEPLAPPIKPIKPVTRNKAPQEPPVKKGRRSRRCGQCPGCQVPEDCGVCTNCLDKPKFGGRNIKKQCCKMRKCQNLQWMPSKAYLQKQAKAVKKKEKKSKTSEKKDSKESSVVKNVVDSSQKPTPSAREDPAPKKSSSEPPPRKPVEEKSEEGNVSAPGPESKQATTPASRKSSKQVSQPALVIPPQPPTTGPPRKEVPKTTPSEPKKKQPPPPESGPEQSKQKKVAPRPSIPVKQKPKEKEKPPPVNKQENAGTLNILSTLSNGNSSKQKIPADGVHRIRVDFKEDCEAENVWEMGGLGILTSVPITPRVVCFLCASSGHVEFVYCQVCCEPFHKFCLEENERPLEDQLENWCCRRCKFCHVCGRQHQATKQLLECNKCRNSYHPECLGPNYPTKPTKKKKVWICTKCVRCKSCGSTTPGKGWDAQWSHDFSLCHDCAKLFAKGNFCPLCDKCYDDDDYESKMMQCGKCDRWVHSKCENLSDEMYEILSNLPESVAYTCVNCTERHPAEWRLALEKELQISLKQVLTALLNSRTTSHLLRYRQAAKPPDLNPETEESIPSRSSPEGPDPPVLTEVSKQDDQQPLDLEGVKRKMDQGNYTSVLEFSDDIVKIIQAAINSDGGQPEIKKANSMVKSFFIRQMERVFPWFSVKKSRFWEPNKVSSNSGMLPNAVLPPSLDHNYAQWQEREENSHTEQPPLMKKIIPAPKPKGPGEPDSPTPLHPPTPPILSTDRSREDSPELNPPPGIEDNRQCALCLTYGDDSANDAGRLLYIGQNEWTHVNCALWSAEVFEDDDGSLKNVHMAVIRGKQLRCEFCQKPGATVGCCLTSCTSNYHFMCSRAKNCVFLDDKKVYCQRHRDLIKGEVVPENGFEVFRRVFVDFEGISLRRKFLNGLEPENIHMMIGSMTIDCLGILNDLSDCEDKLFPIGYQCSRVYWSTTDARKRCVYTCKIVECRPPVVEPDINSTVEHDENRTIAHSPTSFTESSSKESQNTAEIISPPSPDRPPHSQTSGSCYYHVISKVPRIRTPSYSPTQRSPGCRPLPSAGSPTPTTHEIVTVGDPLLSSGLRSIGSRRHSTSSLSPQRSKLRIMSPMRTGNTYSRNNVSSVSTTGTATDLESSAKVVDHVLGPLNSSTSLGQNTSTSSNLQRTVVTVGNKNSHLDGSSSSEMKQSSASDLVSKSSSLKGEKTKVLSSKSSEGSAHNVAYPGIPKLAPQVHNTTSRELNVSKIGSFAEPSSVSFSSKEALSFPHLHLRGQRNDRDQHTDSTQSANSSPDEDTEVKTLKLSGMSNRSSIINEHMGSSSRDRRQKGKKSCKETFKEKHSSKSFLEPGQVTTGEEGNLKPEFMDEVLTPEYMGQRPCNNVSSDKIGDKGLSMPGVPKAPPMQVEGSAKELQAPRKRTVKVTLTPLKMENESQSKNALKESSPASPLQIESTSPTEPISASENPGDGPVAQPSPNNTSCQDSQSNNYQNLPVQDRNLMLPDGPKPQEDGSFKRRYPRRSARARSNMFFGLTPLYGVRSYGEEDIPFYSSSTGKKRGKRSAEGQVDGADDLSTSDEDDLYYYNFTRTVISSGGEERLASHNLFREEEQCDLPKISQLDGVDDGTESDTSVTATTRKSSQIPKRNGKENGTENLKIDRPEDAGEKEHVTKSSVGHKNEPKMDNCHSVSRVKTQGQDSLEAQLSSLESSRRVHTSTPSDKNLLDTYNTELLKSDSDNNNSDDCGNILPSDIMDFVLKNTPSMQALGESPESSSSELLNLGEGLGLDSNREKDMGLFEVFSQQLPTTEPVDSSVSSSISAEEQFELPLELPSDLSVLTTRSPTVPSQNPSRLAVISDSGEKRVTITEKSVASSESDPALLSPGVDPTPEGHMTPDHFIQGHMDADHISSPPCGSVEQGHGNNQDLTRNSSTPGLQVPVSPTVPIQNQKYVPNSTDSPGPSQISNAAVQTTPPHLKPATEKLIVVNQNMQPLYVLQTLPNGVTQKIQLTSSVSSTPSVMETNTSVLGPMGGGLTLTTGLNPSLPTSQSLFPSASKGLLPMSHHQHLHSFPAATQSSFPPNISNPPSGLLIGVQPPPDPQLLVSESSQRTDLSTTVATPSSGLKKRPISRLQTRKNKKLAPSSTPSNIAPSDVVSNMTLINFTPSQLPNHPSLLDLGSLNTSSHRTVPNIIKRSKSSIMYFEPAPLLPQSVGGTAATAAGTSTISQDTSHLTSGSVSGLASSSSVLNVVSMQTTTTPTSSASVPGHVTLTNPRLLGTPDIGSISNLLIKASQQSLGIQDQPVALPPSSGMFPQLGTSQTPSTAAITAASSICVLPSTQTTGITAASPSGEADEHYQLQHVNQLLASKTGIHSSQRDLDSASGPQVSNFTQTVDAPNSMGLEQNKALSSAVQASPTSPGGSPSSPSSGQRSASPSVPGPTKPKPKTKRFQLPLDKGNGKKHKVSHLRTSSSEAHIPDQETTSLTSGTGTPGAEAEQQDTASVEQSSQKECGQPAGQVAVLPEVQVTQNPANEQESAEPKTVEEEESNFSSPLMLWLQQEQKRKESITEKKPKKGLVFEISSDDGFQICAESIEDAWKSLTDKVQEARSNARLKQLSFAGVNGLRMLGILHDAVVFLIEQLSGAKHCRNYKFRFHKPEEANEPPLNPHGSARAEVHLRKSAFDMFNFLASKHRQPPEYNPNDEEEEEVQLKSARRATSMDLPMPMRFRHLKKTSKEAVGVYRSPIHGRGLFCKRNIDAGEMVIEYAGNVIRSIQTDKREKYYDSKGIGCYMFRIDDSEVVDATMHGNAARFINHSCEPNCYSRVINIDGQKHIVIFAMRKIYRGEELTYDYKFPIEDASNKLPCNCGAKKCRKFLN

Biological target: Histone-lysine N-methyltransferase 2A (Homo sapiens) (UniProt Q03164)
Assay: qHTS Fluorescence Polarization Assay for Inhibitors of MLL CXXC domain - DNA interaction
Conditions: MLL-CXXC / FITC-HOXA9 DNA fluorescence polarization; series mostly up to 115 µM
Text: NIH Chemical Genomics Center [NCGC] NIH Molecular Libraries Probe Production centers Network [MLPCN] MLPCN Grant: DA027717-01A1 Assay Submitter (PI): John Bushweller NCGC Assay Overview: The MLL (Mixed Lineage Luekemia) gene is involved in chromosomal translocation that results in either acute lymphoid leukemia (ALL) or acute myeloid leukemia (AML). Chromasomal translocation of MLL gene is responsible for the fusion of N-terminal MLL to more than 60 different partner genes in frame. Many of the MLL partner genes contain transcription activation domains or function as transcriptional activators. Despite the heterogeneity of fusion partners, the N-terminus of MLL fusion proteins always consists of the N-terminal menin binding motif and the CXXC domain. The MLL-CXXC domain specifically recognizes unmethylated CpG sequences of the HOX-A gene. Disruption of the MLL-CXXC and HOX-A gene interaction leads to down regulation of HOX-A gene expression and may potentially reverse leukemogenesis. We have miniaturized and optimized an in-vitro assay to screen for inhibitors of the MLL-CXXC domain and HOX-A DNA interaction, which could have utility in MLL fusion leukemias.
The affinity purified MLL-CXXC domain, unlabeled HOX-A9 DNA strand, fluorescein (FLSN) labeled HOX-A9 DNA strand were kindly supplied by the laboratory of Dr. John Bushweller, University of Virginia. All reagents were stored in single use aliquots at -80C. Assay Reagents: Assay buffer: 50 mM TRIS-HCl pH 7.5, 50 mM NaCl, 1 mM DTT. Add 0.05% BSA prior to reaction setup. Assay Procedure: 1.Dispense 1 ul of a 7 uM MLL-CXXC solution prepared in assay buffer into column 1-48. 2.Transfer 23 nl of compounds and unlabeled HOX-A9 per well. 3.Incubate for 5 minutes at ambient. 4.Dispense 1ul of a 50 nM FLSN-HOX-A9 solution prepared in assay buffer into columns 1-48 5.Centrifuge for 30 seconds at 1000 RPM. 6.Incubate for 30 minutes at ambient. 7.Read using the Envision reader fluorescent polarization protocol.
Potency is read from the fitted curve at half-maximal effect.

| SMILES | Potency |
| --- | --- |
| CC(C(=O)NC1CCCC1)N1C(=O)c2cccc3cccc1c23 (configuration not stated) | inconclusive: 25.1 µM [fluorescent, side channel, partial curve] |
| Cc1ccc(/C=C2/NC(=O)N(Cc3ccccc3)C2=O)s1 | inconclusive: 35.5 µM [fluorescent, side channel, single point] |
| O=C(CC1SC(=O)N(c2ccccc2)C1=O)Nc1ccc(Cl)cc1 (configuration not stated) | inactive |
| C=CCSc1nnc(C)c(/C=C/Nc2ccc(Cl)cc2)n1 | inconclusive: 6.31 µM [fluorescent, side channel, partial curve] |
| CN1CC(=O)N2C(c3ccc(Cl)cc3)c3[nH]c4ccccc4c3C[C@H]2C1=O (some centres not stated) | inconclusive: 35.5 µM [fluorescent, side channel, single point] |
| CCN(CC)c1nc2ccccc2nc1C(C#N)C(=O)NCCc1ccccc1 (configuration not stated) | inconclusive: 39.8 µM [fluorescent, side channel, partial curve] |
| OCCCCCNc1ncnc2ccccc12 | inconclusive: 63.1 µM [fluorescent, side channel, single point] |
| Cc1coc2c1c(C)cc1oc(=O)c(CC(=O)NCC(=O)O)c(C)c12 | inconclusive: 3.55 µM [inhibitor, partial curve] |
| COc1ccccc1NC(=O)C(C)NC(c1ccccc1)c1ccccc1 (configuration not stated) | inconclusive: 14.1 µM [fluorescent, side channel, single point] |
| Cc1ccc2c(c1)c1c(n2CC(O)CNC2CCCC2)CCCC1 (configuration not stated) | inconclusive: 6.31 µM [quencher, side channel, full curve] |
| COc1ccc(/C=N\Nc2ccc([N+](=O)[O-])cc2[N+](=O)[O-])c(C(=O)O)c1OC | inconclusive: 70.8 µM [inhibitor, single point] |
| O=C(CN1CCCC1)Nc1ccccc1Sc1ccc(Cl)cc1 | inactive |
| OC1(c2ccc(Cl)cc2)CCN(Cc2cn[nH]c2-c2ccccc2)CC1 | inactive |
| COc1ccc(-c2cc(C(=O)n3cnc4ccccc43)c3ccccc3n2)cc1 | inconclusive: 63.1 µM [quencher, side channel, single point] |
| O=C1NC(=O)/C(=C\c2ccccc2Oc2ccc(F)c(F)c2)S1 | inconclusive: 17.8 µM [inhibitor, partial curve] |
| Cc1nn(-c2ccccc2)c(C)c1NC(=O)COC(=O)c1cc([N+](=O)[O-])ccc1NCCO | inconclusive: 14.1 µM [fluorescent, side channel, single point] |
| CCN(CC)CCNC(=O)C(=O)NCC1OCCN1S(=O)(=O)c1ccc(Cl)cc1 (configuration not stated) | inconclusive: 15.8 µM [quencher, side channel, single point] |
| COCCCn1c(=O)/c(=C\c2cccc(OC)c2OC)s/c1=C(/C#N)C(=O)Nc1ccc(C(=O)O)cc1 | inconclusive: 70.8 µM [fluorescent, side channel, single point] |
| O=C1c2cccc3c(N4CCCCC4)ccc(c23)C(=O)N1c1ccccn1 | inconclusive: 28.2 µM [fluorescent, side channel, partial curve] |

| SMILES | Potency |
| --- | --- |
| Oc1ccccc1/C=N/n1c(COc2ccccc2)n[nH]c1=S | inactive |
| Cc1cc(S(=O)(=O)N2CCOCC2)ccc1OCC(=O)Nc1ccc(F)cc1 | inactive |
| COc1nnc(-c2ccc(N3CCOCC3)c(NC(=O)c3ccco3)c2)c2ccccc12 | inconclusive: 63.1 µM [quencher, side channel, single point] |
| CCC[N+]1(CC#CC(O)(c2ccccc2)C2CCCCC2)CCCCC1 (configuration not stated) | inactive |
| CC1CCN(Cc2cc(=O)oc3cc(O)c(Cl)cc23)CC1 | inconclusive: 15.8 µM [fluorescent, side channel, single point] |
| O=C(COc1ccc(C(=S)N2CCCC2)cc1)Nc1ccc(F)cc1 | inconclusive: 31.6 µM [quencher, side channel, single point] |
| Cn1c(-c2ccc(Cl)nc2)nc2ccccc21 | inconclusive: 15.8 µM [fluorescent, side channel, partial curve] |
| CCOC(=O)C1=C(CN2CCN(CCC#N)CC2)NC(=O)NC1c1ccc2c(c1)OCO2 (configuration not stated) | inconclusive: 7.08 µM [quencher, side channel, full curve, poor fit] |
| COc1cn(-c2ccccc2)nc1C(=O)NCc1ccc(C)cc1 | inconclusive: 63.1 µM [inhibitor, single point] |
| O=C(CC1C(=O)NCCN1Cc1cccc(F)c1)NC1CCC1 (configuration not stated) | inconclusive: 28.2 µM [fluorescent, side channel, partial curve] |
| NC(=O)CC(NC(=O)Cc1cccc2ccccc12)c1ccc(NCc2ccccc2)c([N+](=O)[O-])c1 (configuration not stated) | inconclusive: 22.4 µM [inhibitor, partial curve] |
| Cc1ccc(S(=O)(=O)NCc2ccc(N3CCN(C(=O)OC(C)(C)C)CC3)cc2)cc1 | inconclusive: 70.8 µM [quencher, side channel, single point] |
| CC1=NN(c2ccc(Cl)c(C(=O)O)c2)C(=O)/C1=C\c1ccc(-c2ccc(C(=O)O)cc2)o1 | inconclusive: 11.2 µM [inhibitor, partial curve] |
| COc1ccc(NC(=O)CSCC(=O)Nc2ccc(S(=O)(=O)N3CCCCC3)cc2)cc1 | inconclusive: 28.2 µM [fluorescent, side channel, partial curve] |
| C[n+]1ccccc1/C=C/c1cc(Br)ccc1O | inconclusive: 35.5 µM [fluorescent, side channel, single point] |
| C/C(=N\N=C\c1ccccc1F)c1nnn(-c2nonc2N)c1C | inconclusive: 89.1 µM [fluorescent, side channel, single point] |
| COc1cc(/C=C/C(=O)c2ccc3c(c2)OCCO3)cc(Br)c1OCC(=O)N(C)C | inconclusive: 63.1 µM [fluorescent, side channel, single point] |
| O=C1Cc2ccccc2C(=O)N1CCc1ccccc1 | inconclusive: 70.8 µM [inhibitor, single point] |

In the list so far, 2 contain bromine:

| SMILES | Potency |
| --- | --- |
| C[n+]1ccccc1/C=C/c1cc(Br)ccc1O | inconclusive: 35.5 µM [fluorescent, side channel, single point] |
| COc1cc(/C=C/C(=O)c2ccc3c(c2)OCCO3)cc(Br)c1OCC(=O)N(C)C | inconclusive: 63.1 µM [fluorescent, side channel, single point] |
